The source of these data is patent US20230416362A1.

B1: 1G3 scFv phage clone (scFv, V domains shown)
VH: DIQLVQSGGGLVKPGGSLRLSCAASGYTFTNYWIGWVRQTPGKGLEWVGDIYPGSSFTNSNEKFKGRFTISADKSKNTAYLQMNSLRAEDTAVYYCARDMVGYWYFDVWGQGTLVTVSS
VL: DIVLTQSPATLSASLGERATLSCSASSSVSYIHWYQQKPGQAPKLLIYTTSNLASGVPSRFSGSGSGTDFTLTISSLEAEDFATYYCHQWSRYPTFGGGTKLEIK
B2: 2F1 scFv phage clone (scFv, V domains shown)
VH: B1 VH with D99V, M100I
VL: B1 VL
B3: 3H2 scFv phage clone (scFv, V domains shown)
VH: B1 VH with D99I, M100R, V101L
VL: B1 VL

Changes are numbered by the printed parent chain. These are yes or no findings as the source states them, for the method shown. Binding can be weak; no strength is given.

The target in the experiment is recombinant mouse TIGIT IgV domain (mouse). Put plainly: phage display panning on biotinylated mouse TIGIT IgV domain.
With B1, the binding entry was “binds”.

For B2, the binding result is listed as “binds”. As for B3, the entry is “binds”.
